Laboratory results: article PMC5447080
These are yes or no findings as the source states them, for the method shown. In cells and extracts the contact can be indirect. Some results given as binding are weak or reduced against the parent protein; the word gives no strength.

By UniProt entry, the sequences of proteins in these tests, tags left out.
UniProt Q9UBQ5: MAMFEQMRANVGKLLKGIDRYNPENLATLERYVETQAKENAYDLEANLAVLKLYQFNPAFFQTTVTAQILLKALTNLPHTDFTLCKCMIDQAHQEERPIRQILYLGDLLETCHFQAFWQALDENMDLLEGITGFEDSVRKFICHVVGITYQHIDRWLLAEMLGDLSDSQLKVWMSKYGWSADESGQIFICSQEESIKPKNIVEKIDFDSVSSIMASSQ
UniProt O00303: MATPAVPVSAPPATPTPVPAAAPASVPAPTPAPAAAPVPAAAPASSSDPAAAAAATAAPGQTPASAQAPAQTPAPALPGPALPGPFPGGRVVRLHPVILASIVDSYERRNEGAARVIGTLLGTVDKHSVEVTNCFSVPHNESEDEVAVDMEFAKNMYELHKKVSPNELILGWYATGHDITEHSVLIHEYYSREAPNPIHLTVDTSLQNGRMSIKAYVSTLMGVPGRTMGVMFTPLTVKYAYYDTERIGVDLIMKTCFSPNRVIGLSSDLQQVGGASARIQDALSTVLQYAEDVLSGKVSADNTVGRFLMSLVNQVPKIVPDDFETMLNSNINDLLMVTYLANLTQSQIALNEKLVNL
UniProt P60228: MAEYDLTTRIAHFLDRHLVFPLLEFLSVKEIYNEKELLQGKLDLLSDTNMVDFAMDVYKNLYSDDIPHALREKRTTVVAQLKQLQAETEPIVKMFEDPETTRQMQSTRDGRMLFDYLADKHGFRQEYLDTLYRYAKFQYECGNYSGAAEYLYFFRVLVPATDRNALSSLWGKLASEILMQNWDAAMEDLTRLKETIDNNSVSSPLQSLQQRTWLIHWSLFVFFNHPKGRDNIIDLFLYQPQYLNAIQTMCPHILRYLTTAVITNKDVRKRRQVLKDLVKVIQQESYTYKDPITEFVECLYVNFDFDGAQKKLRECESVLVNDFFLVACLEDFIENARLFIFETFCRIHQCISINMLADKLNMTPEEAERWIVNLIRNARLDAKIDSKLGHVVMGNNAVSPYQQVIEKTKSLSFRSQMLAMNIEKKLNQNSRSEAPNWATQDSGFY
UniProt O15372: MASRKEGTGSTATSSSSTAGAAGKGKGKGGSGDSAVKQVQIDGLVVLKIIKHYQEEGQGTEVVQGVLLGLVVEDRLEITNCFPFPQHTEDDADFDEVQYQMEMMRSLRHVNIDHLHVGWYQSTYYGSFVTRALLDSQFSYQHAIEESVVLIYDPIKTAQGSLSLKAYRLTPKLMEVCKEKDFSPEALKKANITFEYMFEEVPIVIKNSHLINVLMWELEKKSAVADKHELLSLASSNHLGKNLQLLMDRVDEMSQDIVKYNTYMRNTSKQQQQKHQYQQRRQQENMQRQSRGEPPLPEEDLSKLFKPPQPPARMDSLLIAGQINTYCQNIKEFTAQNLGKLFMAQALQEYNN

Experiments:
Experiment in all cases: pull-down; co-purification on a GST column from E. coli co-expressing the eight tagged eIF3 subunits; retained proteins seen as bands on a Coomassie stained SDS-PAGE gel
[1] = molecular target: human eukaryotic translation initiation factor 3 subunit k (His6-GST-k) (human) (UniProt Q9UBQ5)
[2] = molecular target: human eukaryotic translation initiation factor 3 subunit f (His6-GST-f) (human) (UniProt O00303)
[3] = molecular target: human eukaryotic translation initiation factor 3 subunit e (His6-GST-e) (human) (UniProt P60228)

Measured: binding

human eukaryotic translation initiation factor 3 subunit h (His6-MBP-h) (from UniProt O15372 1-352)
binds: all assays above
